{"sequences": {"note": "Protein sequences, listed by entry. Tags and fused reporters are not part of them. Lines headed by an entry give the natural chain unless they say otherwise; changes in a name come on top.", "UniProt Q8IWU2": "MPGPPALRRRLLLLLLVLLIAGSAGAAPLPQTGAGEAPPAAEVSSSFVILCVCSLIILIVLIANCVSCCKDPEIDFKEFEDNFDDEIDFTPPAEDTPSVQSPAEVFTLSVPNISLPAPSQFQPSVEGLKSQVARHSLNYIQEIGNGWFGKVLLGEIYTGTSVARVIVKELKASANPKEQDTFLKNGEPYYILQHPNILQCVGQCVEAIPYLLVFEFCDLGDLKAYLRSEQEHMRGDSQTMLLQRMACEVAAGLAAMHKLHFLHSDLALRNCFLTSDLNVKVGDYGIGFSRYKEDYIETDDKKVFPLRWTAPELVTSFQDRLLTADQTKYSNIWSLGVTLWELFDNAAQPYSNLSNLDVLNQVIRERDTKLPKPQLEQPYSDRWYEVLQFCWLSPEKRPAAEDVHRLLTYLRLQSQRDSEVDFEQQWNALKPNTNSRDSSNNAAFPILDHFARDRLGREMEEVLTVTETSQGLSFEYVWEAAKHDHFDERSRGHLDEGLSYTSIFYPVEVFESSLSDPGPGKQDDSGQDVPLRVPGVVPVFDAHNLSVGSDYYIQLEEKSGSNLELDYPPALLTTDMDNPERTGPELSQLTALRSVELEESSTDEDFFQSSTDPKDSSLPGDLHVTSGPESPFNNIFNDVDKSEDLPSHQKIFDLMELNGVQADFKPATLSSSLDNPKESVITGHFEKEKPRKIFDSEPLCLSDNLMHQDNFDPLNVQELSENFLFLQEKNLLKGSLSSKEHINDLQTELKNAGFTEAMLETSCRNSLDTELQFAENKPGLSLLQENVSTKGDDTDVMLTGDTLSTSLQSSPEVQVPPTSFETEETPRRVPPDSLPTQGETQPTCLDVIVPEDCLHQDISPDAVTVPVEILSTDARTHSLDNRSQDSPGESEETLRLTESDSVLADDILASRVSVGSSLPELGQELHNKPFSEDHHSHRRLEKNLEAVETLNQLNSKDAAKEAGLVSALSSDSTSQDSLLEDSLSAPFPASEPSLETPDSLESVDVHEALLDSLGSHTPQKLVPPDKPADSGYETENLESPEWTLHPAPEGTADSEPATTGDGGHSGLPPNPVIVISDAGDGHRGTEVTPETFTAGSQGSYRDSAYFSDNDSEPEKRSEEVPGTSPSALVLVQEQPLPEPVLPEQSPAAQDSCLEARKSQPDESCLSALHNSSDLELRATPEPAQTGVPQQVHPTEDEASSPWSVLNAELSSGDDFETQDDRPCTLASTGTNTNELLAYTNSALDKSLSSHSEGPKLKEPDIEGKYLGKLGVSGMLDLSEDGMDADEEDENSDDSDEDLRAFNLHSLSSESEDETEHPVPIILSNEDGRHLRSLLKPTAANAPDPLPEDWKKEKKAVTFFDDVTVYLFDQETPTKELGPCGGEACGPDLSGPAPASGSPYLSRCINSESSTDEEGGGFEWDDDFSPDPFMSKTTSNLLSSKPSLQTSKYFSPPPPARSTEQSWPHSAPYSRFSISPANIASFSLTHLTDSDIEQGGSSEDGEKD", "UniProt P41240": "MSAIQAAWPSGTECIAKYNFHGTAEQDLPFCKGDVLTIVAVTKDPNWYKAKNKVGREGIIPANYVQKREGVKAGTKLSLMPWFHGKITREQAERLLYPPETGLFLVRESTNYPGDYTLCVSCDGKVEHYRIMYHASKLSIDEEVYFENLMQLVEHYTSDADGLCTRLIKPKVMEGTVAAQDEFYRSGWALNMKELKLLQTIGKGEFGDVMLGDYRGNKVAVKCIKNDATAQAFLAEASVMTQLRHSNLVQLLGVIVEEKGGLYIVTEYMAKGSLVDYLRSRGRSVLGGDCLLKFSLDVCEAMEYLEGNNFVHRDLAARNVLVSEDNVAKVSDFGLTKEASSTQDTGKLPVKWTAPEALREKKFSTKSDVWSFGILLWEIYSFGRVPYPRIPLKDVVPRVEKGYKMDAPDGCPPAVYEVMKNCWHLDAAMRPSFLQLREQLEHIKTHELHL", "UniProt P49840": "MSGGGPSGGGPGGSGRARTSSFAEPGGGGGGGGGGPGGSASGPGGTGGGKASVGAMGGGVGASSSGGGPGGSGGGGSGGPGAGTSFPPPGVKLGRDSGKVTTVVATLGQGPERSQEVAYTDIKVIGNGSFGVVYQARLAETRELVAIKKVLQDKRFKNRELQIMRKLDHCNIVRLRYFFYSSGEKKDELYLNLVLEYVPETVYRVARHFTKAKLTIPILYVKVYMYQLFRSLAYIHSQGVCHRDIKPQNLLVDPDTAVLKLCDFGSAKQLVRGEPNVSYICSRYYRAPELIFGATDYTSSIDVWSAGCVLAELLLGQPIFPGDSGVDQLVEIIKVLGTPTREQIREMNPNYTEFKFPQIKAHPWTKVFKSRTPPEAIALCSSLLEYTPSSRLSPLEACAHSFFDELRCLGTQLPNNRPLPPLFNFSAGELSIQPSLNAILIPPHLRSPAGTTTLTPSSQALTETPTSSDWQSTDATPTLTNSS", "UniProt P31152, whole entry": "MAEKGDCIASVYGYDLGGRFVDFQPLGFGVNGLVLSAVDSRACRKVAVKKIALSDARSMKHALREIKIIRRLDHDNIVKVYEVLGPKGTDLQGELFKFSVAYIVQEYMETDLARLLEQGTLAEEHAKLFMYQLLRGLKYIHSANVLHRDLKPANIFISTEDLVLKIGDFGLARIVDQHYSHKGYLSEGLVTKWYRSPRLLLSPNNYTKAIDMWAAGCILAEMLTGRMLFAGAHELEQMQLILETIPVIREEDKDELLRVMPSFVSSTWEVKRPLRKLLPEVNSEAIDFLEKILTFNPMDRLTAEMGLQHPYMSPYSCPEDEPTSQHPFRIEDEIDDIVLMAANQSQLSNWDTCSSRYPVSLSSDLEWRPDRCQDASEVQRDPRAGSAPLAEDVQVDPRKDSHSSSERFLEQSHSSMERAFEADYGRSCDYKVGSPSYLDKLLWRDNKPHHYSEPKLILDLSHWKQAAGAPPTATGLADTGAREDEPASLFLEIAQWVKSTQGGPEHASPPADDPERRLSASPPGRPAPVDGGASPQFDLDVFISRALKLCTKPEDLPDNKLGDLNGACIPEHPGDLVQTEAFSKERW", "UniProt P29317, whole entry": "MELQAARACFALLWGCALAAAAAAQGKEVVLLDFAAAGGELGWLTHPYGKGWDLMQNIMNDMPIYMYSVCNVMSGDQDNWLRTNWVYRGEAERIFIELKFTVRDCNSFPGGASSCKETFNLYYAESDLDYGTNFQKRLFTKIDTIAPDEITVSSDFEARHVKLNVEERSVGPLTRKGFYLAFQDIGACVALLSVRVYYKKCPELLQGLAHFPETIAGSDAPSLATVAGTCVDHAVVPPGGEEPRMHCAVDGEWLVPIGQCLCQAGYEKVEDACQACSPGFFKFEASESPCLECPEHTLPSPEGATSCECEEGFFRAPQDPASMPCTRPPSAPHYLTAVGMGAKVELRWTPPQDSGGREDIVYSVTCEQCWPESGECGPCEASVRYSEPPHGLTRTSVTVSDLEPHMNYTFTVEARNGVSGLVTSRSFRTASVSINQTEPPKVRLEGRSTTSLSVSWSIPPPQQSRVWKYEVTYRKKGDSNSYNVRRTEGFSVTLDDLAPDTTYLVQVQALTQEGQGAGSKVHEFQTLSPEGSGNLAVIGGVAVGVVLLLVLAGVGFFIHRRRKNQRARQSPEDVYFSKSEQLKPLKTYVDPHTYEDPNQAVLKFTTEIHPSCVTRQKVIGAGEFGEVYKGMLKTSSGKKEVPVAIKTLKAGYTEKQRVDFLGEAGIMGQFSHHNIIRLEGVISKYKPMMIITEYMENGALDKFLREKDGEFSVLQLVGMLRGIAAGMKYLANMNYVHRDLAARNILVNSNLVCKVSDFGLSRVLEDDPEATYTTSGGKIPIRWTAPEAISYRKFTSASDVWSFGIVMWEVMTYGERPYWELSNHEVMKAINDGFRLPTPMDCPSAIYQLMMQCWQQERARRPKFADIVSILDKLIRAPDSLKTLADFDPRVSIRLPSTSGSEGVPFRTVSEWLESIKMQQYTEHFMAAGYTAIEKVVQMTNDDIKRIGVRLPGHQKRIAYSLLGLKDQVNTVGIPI", "UniProt Q9UBF8": "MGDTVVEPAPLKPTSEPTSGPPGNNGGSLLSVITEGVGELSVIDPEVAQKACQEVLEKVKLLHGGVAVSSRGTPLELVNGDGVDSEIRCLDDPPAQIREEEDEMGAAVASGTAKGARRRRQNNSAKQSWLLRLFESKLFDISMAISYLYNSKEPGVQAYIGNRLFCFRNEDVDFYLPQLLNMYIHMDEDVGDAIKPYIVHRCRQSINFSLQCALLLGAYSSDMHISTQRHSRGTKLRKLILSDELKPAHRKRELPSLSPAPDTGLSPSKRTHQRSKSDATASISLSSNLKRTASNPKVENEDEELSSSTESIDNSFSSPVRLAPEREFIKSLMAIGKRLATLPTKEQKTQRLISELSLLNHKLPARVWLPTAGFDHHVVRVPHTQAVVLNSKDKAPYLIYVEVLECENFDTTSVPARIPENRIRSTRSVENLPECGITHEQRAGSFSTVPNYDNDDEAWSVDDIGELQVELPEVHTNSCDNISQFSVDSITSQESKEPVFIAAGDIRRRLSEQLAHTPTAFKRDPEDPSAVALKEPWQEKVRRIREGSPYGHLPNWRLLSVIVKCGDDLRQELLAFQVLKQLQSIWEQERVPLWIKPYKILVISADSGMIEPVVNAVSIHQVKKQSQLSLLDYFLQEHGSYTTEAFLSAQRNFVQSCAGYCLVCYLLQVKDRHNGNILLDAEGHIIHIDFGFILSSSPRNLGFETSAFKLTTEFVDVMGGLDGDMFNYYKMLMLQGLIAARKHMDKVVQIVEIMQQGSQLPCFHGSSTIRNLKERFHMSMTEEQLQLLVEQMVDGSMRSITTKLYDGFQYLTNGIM", "UniProt P48730": "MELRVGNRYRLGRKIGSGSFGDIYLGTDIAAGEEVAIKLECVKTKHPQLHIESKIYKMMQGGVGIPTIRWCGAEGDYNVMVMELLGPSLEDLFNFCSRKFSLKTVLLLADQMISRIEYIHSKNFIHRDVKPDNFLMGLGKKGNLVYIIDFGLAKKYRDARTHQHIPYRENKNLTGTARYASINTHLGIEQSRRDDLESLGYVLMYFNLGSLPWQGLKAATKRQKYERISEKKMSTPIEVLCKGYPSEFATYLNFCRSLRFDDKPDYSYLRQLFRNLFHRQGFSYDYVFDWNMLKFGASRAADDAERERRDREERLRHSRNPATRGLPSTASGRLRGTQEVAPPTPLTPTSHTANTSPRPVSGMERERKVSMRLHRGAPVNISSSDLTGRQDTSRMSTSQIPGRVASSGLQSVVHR", "UniProt Q00526": "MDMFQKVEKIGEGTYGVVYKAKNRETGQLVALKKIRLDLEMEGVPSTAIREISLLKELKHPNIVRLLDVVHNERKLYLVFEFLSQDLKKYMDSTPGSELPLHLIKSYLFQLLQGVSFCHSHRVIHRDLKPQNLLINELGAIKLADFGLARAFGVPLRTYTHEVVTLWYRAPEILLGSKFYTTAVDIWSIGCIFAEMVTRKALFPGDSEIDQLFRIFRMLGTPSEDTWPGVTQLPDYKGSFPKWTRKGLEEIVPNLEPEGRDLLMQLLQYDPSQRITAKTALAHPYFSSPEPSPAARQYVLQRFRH", "UniProt P36888, whole entry": "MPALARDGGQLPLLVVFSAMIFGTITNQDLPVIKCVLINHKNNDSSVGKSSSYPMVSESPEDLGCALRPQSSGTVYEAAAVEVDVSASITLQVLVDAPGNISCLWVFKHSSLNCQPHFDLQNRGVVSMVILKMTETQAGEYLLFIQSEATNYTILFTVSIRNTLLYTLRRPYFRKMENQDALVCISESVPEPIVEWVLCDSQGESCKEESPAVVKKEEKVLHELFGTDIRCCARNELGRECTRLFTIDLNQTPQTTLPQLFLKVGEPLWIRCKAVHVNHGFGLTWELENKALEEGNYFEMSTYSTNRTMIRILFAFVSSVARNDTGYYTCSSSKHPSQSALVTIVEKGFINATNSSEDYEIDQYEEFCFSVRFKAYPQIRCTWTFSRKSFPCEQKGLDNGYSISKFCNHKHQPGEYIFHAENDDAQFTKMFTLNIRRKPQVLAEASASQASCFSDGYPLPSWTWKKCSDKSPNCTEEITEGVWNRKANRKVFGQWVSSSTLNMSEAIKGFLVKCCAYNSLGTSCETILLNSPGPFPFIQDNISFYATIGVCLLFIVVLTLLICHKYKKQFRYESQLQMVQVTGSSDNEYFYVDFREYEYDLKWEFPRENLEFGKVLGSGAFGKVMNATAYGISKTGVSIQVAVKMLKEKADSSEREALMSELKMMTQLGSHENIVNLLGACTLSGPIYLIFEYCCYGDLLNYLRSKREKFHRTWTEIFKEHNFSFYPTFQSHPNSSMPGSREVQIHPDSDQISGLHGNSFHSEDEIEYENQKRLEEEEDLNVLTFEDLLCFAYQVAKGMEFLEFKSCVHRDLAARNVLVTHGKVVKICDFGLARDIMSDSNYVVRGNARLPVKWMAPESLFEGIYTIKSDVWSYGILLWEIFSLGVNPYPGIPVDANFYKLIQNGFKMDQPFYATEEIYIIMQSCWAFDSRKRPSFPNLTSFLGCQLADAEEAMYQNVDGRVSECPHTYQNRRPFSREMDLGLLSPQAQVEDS"}, "source": "the supplement of paper PMC12823440", "about": "“Inhibitors supercharge kinase turnover through native proteolytic circuits” (Nature, 2025)", "note": "This is one part of the list. Hit calls seldom repeat between salt and free forms of one compound.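 Kinases, fused to nanoluciferase, were expressed in K562 cells; luminescence was measured every 4 h from 2 to 18 h as percent of control (DMSO = 100%, positive control = 0%). A time point is decreased if signal falls significantly (2 sigma). Hits were called by the authors by a rule that is not shown; the count of time points alone does not decide it.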"}
{"compound": "CCCOc1ccc(C=C2SC(=O)NC2=O)cc1", "assay": "number of time points (of 5) at which kinase-Nluc abundance scored as decreased, DMSO-normalised (count); higher = more persistent destabilization", "conditions": "10 µM; K562; 2-18 h"}
{"target": "FGR (UniProt P09769)", "number of time points": 0}
{"target": "PTK2B (UniProt Q14289)", "number of time points": 0}
{"target": "LMTK2 (UniProt Q8IWU2)", "number of time points": 0}
{"target": "CSK (UniProt P41240)", "number of time points": 0}
{"target": "STK38 (UniProt Q15208)", "number of time points": 0}
{"target": "ZAP70 (UniProt P43403)", "number of time points": 0}
{"target": "SYK (UniProt P43405)", "number of time points": 0}
{"target": "RIPK2 (UniProt O43353)", "number of time points": 0}
{"target": "SPHK1 (UniProt Q9NYA1)", "number of time points": 0}
{"target": "ERBB3 (UniProt P21860)", "number of time points": 0}
{"target": "PAK4 (UniProt O96013)", "number of time points": 0}
{"target": "NTRK2 (UniProt Q16620)", "number of time points": 0}
{"target": "GSK3A (UniProt P49840)", "number of time points": 0}
{"target": "MAPK4 (UniProt P31152)", "number of time points": 0}
{"target": "TYK2 (UniProt P29597)", "number of time points": 0}
{"target": "EPHA2 (UniProt P29317)", "number of time points": 0}
{"target": "DYRK2 (UniProt Q92630)", "number of time points": 0}
{"target": "ARAF (UniProt P10398)", "number of time points": 0}
{"target": "ROR2 (UniProt Q01974)", "number of time points": 0}
{"target": "PRKAA1 (UniProt Q13131)", "number of time points": 0}
{"target": "INSRR (UniProt P14616)", "number of time points": 0}
{"target": "BRAF (UniProt P15056)", "number of time points": 0}
{"target": "PIK4CB (UniProt Q9UBF8)", "number of time points": 0}
{"target": "NTRK3 (UniProt Q16288)", "number of time points": 0}
{"target": "CSNK1D (UniProt P48730)", "number of time points": 0}
{"target": "PDK1 (UniProt Q15118)", "number of time points": 0}
{"target": "CDK3 (UniProt Q00526)", "number of time points": 0}
{"target": "MAP2K2 (UniProt P36507)", "number of time points": 0}
{"target": "FLT3 (UniProt P36888)", "number of time points": 0}
{"target": "AURKC (UniProt Q9UQB9)", "number of time points": 0}
{"target": "PLK1 (UniProt P53350)", "number of time points": 0}
{"target": "STK24 (UniProt Q9Y6E0)", "number of time points": 0}
{"compound": "CCN(CC)CCNC(=O)c1c(C)[nH]c(/C=C2\\C(=O)Nc3ccc(F)cc32)c1C [Sunitinib]", "assay": "number of time points (of 5) at which kinase-Nluc abundance scored as decreased, DMSO-normalised (count); higher = more persistent destabilization", "conditions": "2.5 µM; K562; 2-18 h"}
{"target": "FGR (UniProt P09769)", "number of time points": 0}
{"target": "PTK2B (UniProt Q14289)", "number of time points": 0}
{"target": "LMTK2 (UniProt Q8IWU2)", "number of time points": 0}
{"target": "CSK (UniProt P41240)", "number of time points": 0}
{"target": "STK38 (UniProt Q15208)", "number of time points": 0}
{"target": "ZAP70 (UniProt P43403)", "number of time points": 0}
{"target": "RIPK2 (UniProt O43353)", "number of time points": 0}
{"target": "SPHK1 (UniProt Q9NYA1)", "number of time points": 0}
{"target": "ERBB3 (UniProt P21860)", "number of time points": 0}
{"target": "PAK4 (UniProt O96013)", "number of time points": 0}
{"target": "NTRK2 (UniProt Q16620)", "number of time points": 0}
{"target": "GSK3A (UniProt P49840)", "number of time points": 0}
{"target": "MAPK4 (UniProt P31152)", "number of time points": 0}
{"target": "TYK2 (UniProt P29597)", "number of time points": 0}
{"target": "EPHA2 (UniProt P29317)", "number of time points": 0}
{"target": "DYRK2 (UniProt Q92630)", "number of time points": 0}
{"target": "ARAF (UniProt P10398)", "number of time points": 0}
{"target": "ROR2 (UniProt Q01974)", "number of time points": 0}
{"target": "PRKAA1 (UniProt Q13131)", "number of time points": 0}
{"target": "INSRR (UniProt P14616)", "number of time points": 0}
{"target": "BRAF (UniProt P15056)", "number of time points": 0}
{"target": "PIK4CB (UniProt Q9UBF8)", "number of time points": 0}
{"target": "CSNK1D (UniProt P48730)", "number of time points": 0}
{"target": "PDK1 (UniProt Q15118)", "number of time points": 0}
{"target": "CDK3 (UniProt Q00526)", "number of time points": 0}
{"target": "MAP2K2 (UniProt P36507)", "number of time points": 0}
{"target": "FLT3 (UniProt P36888)", "number of time points": 0}
{"target": "AURKC (UniProt Q9UQB9)", "number of time points": 0}
{"target": "PLK1 (UniProt P53350)", "number of time points": 0}
{"target": "STK24 (UniProt Q9Y6E0)", "number of time points": 0}
